Results from paper PMC7470953.

Key:
Experiment in all cases: proximity labelling; BioID in procyclic T. brucei with C-terminal BirA* fusions; biotinylated proteins purified from mitochondrial fraction; LC-MS/MS; proximity network
[1] = target: KPAF5, BirA* ligase fusion (Trypanosoma brucei)
[2] = target: RESC5, BirA* ligase fusion (Trypanosoma brucei)
[3] = target: RESC13 (RGG2), BirA* ligase fusion (Trypanosoma brucei)

B1: KPAP1 poly(A) polymerase, BirA* ligase fusion (enzyme, UniProt B3FB38 1-527)
chain: MRKFSAFRSGNTGVKRCITLPWKSSLPPKSDSQWEGLGKSVVRMALASDTGRSAFDECSTARQQLETLVQSTGYDASVFAFGGIVVMGLLEVGGDADFVGVADVEPGVAEAGEIVSRLSREMRRLGLKSSALPKARVPVIKVDRVSKSLPGTPLHHLSTCGIFQFTRQMNNNECISFKSRMEENFGAVNTEWSNNQQFSTVEFSSSSALVAALTEVKRHEGVDIPLRLPVDPRNGPELYRLSFDFCFSSVGLRNSYLLSDVLSKYVFSRHLLLLIKRWGRSSGVINSIDGLLASYALTVMCAHFLIKVGVIPKVSTLRSADEPQLLPPFPDYRPLHDGEDCDLAELGFLTAAFFEYYGAVFDYGKNVVCTTNINLLKKTMRWEKSPGTESGRPPFFEFAIKDPYGLDNIGRNLDSEATEYVRSAHSAALATLLQERGDPDFTVNIITKSPPRPARRSRTLASRGIASATYSSDQLEARHLLKKVAFHERRKSMERFGARAARHTEKQRVVSNVAKDVLGWIKCDNHQ
binding [1]: binds

B2: MERS1 pyrophosphohydrolase, BirA* ligase fusion (enzyme, UniProt B6SBM0 1-395)
chain: MRKQLFFTLARPCVAVGRRFISGDNKSIDSSAFISDDDALRGELASALDTEGHALPFDVHLQQPHSSGDGTAGDTSTIQLEKLSHPPARFDLLTNSFVYKWQTKAALARKVSGPMREWAAELKYRTGVHIELEPTYPERLSENAVKGSGSDDGDGTQWGAYETADDVDITVYLFGSERGIFNCHKLMEAAIQQDPVYVRLGIFRRLANSSEVEWLMLRRINRELRPPDIPPISLKLPGKWTLLYERYKEAAIRTLWEETGITVDASNVYPTGHLYQTVPQYYWRVPVRYFVAEVPSDIRVEGPQVVPLQYMRNWDARLLRQSPDPIDRAWAQLADPATGCAWMKASMIDQLQKPLRGDNYMAIRYTPPPYSNLQEVVGLGDGSITPSTGNGEDAS
binding [2]: binds | binding [3]: binds

No constants are given. Whether binding was seen depends on the method and setting. In cells and extracts the contact can be indirect. Here binding means that the protein was enriched with, or labelled near, the bait; the list need not be complete. Sequences can lack the tags named with a protein.
